The other results are listed elsewhere or left out.
Key:
Assay in all cases: log2 fold change, soluble protein after heating vs DMSO (PISA); higher = thermal stabilisation; K562 cells, 10 uM, 30 min; active = over 0.2 and 3.5 SD of the protein, either way, in both replicates (recomputed)
[1] = compound: CN1CCN(CCOc2cc(OC3CCOCC3)c3c(Nc4c(Cl)ccc5c4OCO5)ncnc3c2)CC1 [saracatinib]
Method in brief: (§1)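 Aliquots of K562 cells (2×10^6 cells/mL) treated with 10 μM compound for 30 min were heated for 3 min over 48°C-58°C. After pooling and extraction in PBS with 0.5% NP-40 at 4°C, soluble protein from a 21,000xg, 90 min spin was quantified by TMTpro 16plex LC-MS/MS with channel sums equalised. Thermal stability is expressed against control samples, from duplicates, as a log2 fold change.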

Sequences of proteins named here, by UniProt entry; tags and fusion partners are left off. A change or cut given only in a name is not applied to a line headed by its entry.
UniProt P82909: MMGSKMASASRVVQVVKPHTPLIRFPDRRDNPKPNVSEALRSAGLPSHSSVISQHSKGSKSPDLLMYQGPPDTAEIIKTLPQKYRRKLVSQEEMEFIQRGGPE
UniProt Q13496: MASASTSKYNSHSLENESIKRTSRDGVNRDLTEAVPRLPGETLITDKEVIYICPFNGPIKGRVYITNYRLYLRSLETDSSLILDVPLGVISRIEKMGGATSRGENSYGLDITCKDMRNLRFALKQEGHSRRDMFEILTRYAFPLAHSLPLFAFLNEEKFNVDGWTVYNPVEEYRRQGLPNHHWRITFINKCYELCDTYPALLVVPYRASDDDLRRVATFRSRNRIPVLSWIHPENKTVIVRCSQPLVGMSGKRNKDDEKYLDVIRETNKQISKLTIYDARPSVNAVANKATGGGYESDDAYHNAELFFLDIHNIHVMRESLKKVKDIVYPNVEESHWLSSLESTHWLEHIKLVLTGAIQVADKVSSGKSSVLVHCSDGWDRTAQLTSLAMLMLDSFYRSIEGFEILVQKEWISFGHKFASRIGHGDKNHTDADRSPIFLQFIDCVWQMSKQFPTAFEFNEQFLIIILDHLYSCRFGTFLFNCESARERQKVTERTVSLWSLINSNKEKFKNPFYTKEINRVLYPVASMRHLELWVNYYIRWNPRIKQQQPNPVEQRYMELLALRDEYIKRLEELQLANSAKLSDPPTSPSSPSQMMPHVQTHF
UniProt Q99707: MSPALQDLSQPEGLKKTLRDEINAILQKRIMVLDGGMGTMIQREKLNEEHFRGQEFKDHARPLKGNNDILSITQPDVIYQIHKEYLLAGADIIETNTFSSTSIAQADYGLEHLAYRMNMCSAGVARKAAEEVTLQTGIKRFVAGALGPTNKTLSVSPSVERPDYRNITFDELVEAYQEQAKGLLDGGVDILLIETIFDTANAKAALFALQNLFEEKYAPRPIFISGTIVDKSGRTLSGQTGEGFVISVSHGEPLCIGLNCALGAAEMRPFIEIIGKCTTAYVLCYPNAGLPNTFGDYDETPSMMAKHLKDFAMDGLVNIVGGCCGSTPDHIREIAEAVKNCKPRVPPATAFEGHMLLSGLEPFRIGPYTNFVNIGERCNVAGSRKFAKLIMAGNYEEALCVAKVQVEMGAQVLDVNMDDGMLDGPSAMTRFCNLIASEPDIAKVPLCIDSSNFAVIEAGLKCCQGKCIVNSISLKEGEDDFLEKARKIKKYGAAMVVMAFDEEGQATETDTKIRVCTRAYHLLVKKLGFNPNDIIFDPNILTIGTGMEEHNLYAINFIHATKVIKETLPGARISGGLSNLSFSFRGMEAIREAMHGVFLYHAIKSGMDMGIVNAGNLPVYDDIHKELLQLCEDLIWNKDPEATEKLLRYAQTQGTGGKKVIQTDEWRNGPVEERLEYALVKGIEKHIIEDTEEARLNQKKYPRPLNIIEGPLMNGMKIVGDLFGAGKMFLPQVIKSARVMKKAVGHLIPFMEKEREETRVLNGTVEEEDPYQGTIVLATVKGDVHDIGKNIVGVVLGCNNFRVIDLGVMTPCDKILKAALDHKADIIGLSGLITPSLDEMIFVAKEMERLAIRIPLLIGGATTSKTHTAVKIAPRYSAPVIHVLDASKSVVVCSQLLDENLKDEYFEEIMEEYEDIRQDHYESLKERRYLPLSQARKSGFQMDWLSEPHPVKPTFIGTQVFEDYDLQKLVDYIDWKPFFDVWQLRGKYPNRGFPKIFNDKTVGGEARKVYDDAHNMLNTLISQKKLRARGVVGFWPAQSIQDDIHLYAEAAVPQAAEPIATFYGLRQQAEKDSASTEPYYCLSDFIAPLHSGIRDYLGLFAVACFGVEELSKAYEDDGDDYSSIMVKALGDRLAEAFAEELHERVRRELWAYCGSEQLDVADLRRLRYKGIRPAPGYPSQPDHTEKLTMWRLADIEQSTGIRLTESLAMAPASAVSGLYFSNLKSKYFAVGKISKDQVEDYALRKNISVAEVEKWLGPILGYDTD
UniProt Q9UBK8: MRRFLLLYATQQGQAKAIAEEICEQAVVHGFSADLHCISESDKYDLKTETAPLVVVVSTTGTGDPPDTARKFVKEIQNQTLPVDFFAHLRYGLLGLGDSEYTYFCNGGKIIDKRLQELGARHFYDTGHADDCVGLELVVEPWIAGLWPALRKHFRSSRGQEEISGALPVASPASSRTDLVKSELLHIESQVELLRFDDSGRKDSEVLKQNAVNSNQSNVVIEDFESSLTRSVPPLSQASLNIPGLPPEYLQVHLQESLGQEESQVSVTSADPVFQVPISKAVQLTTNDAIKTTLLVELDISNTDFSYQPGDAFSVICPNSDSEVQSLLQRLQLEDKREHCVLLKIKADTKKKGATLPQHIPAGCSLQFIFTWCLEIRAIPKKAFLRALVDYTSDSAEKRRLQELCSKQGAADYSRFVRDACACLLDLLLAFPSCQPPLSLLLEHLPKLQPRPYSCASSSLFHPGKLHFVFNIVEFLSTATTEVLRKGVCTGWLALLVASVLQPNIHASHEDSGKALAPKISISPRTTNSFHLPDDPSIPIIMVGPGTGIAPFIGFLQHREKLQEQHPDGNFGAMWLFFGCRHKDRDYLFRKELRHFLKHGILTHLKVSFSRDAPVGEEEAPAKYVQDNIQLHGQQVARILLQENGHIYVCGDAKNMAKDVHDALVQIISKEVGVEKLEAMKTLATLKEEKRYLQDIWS
UniProt P60660, whole entry, looked up: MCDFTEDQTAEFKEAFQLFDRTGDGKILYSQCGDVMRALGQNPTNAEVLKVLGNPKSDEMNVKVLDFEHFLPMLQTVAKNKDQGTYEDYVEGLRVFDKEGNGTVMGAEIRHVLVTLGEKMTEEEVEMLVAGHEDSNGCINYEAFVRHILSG
UniProt Q96DH6: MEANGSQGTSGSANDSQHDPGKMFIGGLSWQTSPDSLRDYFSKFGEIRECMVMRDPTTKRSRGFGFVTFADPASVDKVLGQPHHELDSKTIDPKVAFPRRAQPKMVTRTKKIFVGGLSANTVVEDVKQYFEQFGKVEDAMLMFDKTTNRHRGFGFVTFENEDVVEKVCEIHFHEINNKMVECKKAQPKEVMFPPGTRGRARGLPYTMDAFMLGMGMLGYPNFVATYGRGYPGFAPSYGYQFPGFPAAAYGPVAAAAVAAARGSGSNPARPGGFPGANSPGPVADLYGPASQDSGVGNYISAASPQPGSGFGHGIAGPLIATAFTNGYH
UniProt Q9UDX5: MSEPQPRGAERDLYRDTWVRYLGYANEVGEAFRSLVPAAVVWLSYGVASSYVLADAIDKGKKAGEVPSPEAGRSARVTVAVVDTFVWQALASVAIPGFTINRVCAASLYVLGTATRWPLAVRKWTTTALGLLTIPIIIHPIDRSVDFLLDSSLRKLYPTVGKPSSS
UniProt P03923, whole entry, looked up: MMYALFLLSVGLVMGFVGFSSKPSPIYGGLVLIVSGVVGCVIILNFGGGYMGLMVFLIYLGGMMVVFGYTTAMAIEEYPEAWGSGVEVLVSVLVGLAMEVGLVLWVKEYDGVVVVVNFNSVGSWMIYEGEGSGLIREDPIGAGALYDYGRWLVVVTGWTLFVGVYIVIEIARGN
UniProt P03915, whole entry, looked up: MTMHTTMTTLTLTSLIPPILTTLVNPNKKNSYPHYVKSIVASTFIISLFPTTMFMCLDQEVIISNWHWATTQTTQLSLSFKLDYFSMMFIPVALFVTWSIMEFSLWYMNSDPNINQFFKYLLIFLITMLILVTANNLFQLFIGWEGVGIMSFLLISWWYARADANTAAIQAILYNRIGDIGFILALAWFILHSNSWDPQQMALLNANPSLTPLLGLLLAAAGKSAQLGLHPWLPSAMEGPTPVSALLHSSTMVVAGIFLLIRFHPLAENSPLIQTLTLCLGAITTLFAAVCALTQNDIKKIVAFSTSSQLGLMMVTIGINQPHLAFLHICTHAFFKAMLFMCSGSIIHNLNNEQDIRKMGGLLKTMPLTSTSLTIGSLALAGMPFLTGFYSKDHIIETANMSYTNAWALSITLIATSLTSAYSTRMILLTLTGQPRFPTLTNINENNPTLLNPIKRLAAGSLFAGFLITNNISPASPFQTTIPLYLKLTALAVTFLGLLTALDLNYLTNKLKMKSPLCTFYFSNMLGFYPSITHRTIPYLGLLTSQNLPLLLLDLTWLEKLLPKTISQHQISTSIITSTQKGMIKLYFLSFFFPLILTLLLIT
UniProt Q96E11: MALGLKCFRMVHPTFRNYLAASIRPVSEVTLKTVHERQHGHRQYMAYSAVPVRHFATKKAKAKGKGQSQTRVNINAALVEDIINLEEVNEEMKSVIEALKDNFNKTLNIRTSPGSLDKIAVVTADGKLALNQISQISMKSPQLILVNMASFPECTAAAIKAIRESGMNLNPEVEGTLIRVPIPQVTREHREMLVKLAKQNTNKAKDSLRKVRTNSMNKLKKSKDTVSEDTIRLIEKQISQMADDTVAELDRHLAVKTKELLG
UniProt G3V1V0: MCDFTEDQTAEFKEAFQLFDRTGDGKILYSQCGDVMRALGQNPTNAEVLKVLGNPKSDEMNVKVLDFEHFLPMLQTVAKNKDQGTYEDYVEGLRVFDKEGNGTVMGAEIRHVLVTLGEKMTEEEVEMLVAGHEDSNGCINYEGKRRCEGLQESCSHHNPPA
UniProt Q96S97: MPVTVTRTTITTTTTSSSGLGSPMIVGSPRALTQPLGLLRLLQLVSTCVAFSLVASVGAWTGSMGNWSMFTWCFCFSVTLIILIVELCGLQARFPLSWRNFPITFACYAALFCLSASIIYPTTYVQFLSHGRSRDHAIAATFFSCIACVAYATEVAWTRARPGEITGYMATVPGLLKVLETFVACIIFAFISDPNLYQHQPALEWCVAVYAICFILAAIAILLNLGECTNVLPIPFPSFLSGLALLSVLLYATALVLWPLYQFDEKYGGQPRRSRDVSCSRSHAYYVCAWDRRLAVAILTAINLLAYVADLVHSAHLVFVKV
UniProt Q9H903: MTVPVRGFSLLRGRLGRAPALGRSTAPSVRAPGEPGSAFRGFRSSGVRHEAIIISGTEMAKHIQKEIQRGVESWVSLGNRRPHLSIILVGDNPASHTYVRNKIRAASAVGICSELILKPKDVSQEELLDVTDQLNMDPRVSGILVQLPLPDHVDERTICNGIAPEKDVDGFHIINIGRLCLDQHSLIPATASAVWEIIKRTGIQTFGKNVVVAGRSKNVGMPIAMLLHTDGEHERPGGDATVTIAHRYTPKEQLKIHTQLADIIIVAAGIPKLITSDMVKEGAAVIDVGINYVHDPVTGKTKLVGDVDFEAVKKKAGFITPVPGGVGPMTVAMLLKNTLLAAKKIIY
UniProt Q9H2K0, whole entry, looked up: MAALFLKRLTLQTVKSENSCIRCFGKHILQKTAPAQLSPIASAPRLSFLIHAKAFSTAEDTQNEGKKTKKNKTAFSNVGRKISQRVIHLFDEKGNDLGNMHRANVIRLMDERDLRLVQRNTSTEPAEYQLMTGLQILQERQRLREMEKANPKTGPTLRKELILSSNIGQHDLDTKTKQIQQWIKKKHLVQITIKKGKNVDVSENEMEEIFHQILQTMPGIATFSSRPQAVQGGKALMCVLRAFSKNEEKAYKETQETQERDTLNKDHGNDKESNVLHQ
UniProt Q2M296: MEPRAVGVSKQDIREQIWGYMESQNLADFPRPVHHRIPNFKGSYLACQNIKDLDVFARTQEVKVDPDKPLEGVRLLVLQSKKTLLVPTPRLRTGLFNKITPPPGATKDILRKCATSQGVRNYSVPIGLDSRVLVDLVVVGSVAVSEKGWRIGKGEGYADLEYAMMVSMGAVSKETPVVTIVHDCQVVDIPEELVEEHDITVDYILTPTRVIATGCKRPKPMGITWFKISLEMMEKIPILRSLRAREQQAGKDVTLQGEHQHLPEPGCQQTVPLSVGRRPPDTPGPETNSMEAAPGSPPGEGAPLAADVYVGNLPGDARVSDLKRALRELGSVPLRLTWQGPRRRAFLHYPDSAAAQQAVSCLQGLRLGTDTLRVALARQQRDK
UniProt P00403, whole entry, looked up: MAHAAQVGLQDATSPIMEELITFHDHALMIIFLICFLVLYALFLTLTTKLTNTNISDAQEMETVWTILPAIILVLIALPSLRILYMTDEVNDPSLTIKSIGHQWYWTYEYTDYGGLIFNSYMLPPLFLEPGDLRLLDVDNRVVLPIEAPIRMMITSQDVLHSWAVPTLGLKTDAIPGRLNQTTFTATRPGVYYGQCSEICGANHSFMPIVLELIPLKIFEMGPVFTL
UniProt P00414, whole entry, looked up: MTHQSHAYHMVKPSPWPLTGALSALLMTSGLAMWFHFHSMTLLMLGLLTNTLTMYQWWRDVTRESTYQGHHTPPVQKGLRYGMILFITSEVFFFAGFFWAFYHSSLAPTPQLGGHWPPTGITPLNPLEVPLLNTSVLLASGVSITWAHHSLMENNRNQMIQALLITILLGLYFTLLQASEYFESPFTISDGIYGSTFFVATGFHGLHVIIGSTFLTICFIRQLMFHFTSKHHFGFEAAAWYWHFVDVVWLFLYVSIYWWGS
UniProt O75431: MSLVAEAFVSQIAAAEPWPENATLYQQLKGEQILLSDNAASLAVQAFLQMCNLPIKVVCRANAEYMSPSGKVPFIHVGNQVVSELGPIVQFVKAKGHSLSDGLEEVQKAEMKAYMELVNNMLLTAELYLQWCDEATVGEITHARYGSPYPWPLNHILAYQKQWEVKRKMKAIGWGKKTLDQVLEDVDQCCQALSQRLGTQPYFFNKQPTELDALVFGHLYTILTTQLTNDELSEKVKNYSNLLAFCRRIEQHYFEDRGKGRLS

[2] = compound: CN1CCN(c2nc(C3=C(c4c[nH]c5ccccc45)C(=O)NC3=O)c3ccccc3n2)CC1 [sotrastaurin]
Method in brief: as §1

[3] = compound: CN1CC[C@H](c2c(O)cc(O)c3c(=O)cc(-c4ccccc4Cl)oc23)[C@H](O)C1 [alvocidib]
Method in brief: as §1

[4] = compound: CN1CCc2c(c3ccccc3n2Cc2ccc(C(=O)NO)cc2)C1 [Tubastatin A]
Method in brief: as §1

[5] = compound: CNC(=O)C1=CC=CC=C1NC2=NC(=NC=C2Cl)NC3=C(C=C(C=C3)N4CCOCC4)OC
Method in brief: as §1

[6] = compound: CNC(=O)c1ccc(Nc2ncc(C(F)(F)F)c(NCc3nccnc3N(C)S(C)(=O)=O)n2)cc1 [defactinib]
Method in brief: as §1

[7] = compound: CNCc1ccc(-c2[nH]c3cc(F)cc4c3c2CCNC4=O)cc1 [rucaparib]
Method in brief: as §1

[8] = compound: CNc1nc(-c2ccc3c(N)n[nH]c3c2)cc(N2C[C@@H](C(=O)NC3CCCCC3)CC[C@H]2C)n1
Method in brief: as §1

[9] = compound: COC(=O)N[C@@H](C)CNc1nccc(-c2cn(C(C)C)nc2-c2cc(Cl)cc(NS(C)(=O)=O)c2F)n1 [encorafenib]
Method in brief: as §1

[10] = compound: COC(=O)[C@H](CCSC)NC(=O)C1=C(C=C(C=C1)NC[C@H](CS)N)C2=CC=CC=C2
Method in brief: as §1

Measured: log2 fold change

MRPS36 (UniProt P82909)
inactive: [1] -0.083 | [2] 0.024 | [3] 0.016 | [4] -0.007 | [5] -0.026 | [6] 0.019 | [7] 0.01 | [8] -0.026 | [9] -0.102 | [10] 0.019

MTM1 (UniProt Q13496)
inactive: [1] 0.093 | [2] 0.016 | [3] 0.01 | [4] 0.068 | [5] -0.085 | [6] -0.093 | [7] -0.007 | [8] 0.025 | [9] -0.055 | [10] -0.014

MTR (UniProt Q99707)
inactive: [1] -0.109 | [2] -0.042 | [3] 0.1 | [4] 0.096 | [5] 0.01 | [6] 0.033 | [7] 0.268 | [8] 0.059 | [9] 0.099 | [10] -0.051

MTRR isoform 1 (UniProt Q9UBK8)
inactive: [1] -0.115 | [2] 0.109 | [3] -0.014 | [4] 0.08 | [5] -0.06 | [6] -0.069 | [7] 0.051 | [8] 0.106 | [9] 0.032 | [10] -0.117

MYL6 isoform 2 (UniProt P60660)
inactive: [1] -0.024 | [2] -0.076 | [3] -0.016 | [4] 0.063 | [5] 0.017 | [6] -0.023 | [7] -0.045 | [8] -0.031 | [9] -0.008 | [10] -0.015

MSI2 (UniProt Q96DH6)
inactive: [1] -0.021 | [2] 0.025 | [3] 0.111 | [4] 0.078 | [5] 0.066 | [6] 0.129 | [7] 0.117 | [8] 0.005 | [9] -0.004 | [10] -0.002

MYL6B (UniProt P14649)
inactive: [1] 0.02 | [2] 0.034 | [3] -0.015 | [4] 0.007 | [5] 0.017 | [6] -0.006 | [7] -0.027 | [8] -0.104 | [9] 0.018 | [10] 0.02

MYL4 (UniProt P12829)
inactive: [1] 0.032 | [2] 0.039 | [3] -0.003 | [4] 0.032 | [5] -0.012 | [6] 0.03 | [7] -0.047 | [8] -0.017 | [9] -0.036 | [10] -0.019

MTFP1 (UniProt Q9UDX5)
inactive: [1] 0.034 | [2] 0.029 | [3] -0.01 | [4] -0.025 | [5] 0 | [6] -0.015 | [7] 0.024 | [8] -0.028 | [9] 0.003 | [10] 0.012

MTPAP (UniProt Q9NVV4)
inactive: [1] -0.093 | [2] 0.005 | [3] 0.121 | [4] 0.02 | [5] 0.06 | [6] 0.126 | [7] 0.198 | [8] 0.02 | [9] 0.15 | [10] -0.046

MT-ND6 (UniProt P03923)
inactive: [1] 0.021 | [2] -0.036 | [3] 0.085 | [4] 0.06 | [6] -0.022 | [7] -0.067 | [8] -0.254 | [9] 0.021 | [10] -0.027

MUC1, A0A087WWM1
inactive: [1] 0.029 | [2] -0.03 | [3] -0.188 | [4] -0.099 | [5] -0.123 | [6] 0.074 | [7] -0.018 | [8] 0.022 | [9] -0.061 | [10] 0.139

MRPS18C (UniProt Q9Y3D5)
inactive: [1] 0.104 | [2] 0.156 | [3] -0.001 | [4] 0.027 | [5] 0.134 | [6] 0.044 | [7] 0.018 | [8] -0.031 | [9] -0.045 | [10] 0.033

MT-ND5 (UniProt P03915)
inactive: [1] 0.102 | [2] -0.009 | [3] 0.107 | [4] -0.002 | [5] 0.001 | [6] -0.004 | [7] 0 | [8] -0.07 | [9] -0.021 | [10] 0.111

MRRF (UniProt Q96E11)
inactive: [1] 0.025 | [2] -0.015 | [3] -0.031 | [4] 0.019 | [5] 0.033 | [6] -0.02 | [7] -0.069 | [8] 0 | [9] 0.03 | [10] -0.001

MYL6 (UniProt G3V1V0)
inactive: [1] 0.112 | [2] -0.013 | [3] 0.025 | [4] -0.201 | [5] -0.02 | [6] 0 | [7] 0.082 | [8] -0.025 | [9] 0.047 | [10] 0.118

Copied from the results shown (two entries):
MRRF (UniProt Q96E11)
inactive: [1] 0.025 | [2] -0.015 | [3] -0.031 | [4] 0.019 | [5] 0.033 | [6] -0.02 | [7] -0.069 | [8] 0 | [9] 0.03 | [10] -0.001

MYL6 (UniProt G3V1V0)
inactive: [1] 0.112 | [2] -0.013 | [3] 0.025 | [4] -0.201 | [5] -0.02 | [6] 0 | [7] 0.082 | [8] -0.025 | [9] 0.047 | [10] 0.118

(cont.)

MYADM (UniProt Q96S97)
inactive: [1] -0.011 | [2] -0.143 | [3] 0 | [4] 0.064 | [5] -0.028 | [6] 0.004 | [7] -0.002 | [8] -0.054 | [9] 0.025 | [10] -0.064

MUCL1 (UniProt Q96DR8)
inactive: [1] -0.042 | [2] -0.273 | [3] -0.327 | [4] 0.183 | [5] 0.109 | [6] 0.001 | [7] 0.019 | [8] 0.415 | [9] -0.226 | [10] 0.256

MT1G (UniProt P13640)
inactive: [1] 0.103 | [2] -0.018 | [3] 0.004 | [4] -0.092 | [5] -0.051 | [6] -0.014 | [7] 0.04 | [8] -0.053 | [9] -0.033 | [10] 0.125

MTHFD2L (UniProt Q9H903)
inactive: [1] 0.075 | [2] -0.076 | [3] -0.256 | [6] -0.048 | [8] -0.054 | [10] 0.023

MTIF3 (UniProt Q9H2K0)
inactive: [1] -0.091 | [2] -0.205 | [3] -0.043 | [5] 0.064 | [6] 0.032 | [8] 0.006 | [10] -0.021

MTHFSD isoform 3 (UniProt Q2M296)
inactive: [1] -0.121 | [2] -0.166 | [3] 0.182 | [4] 0.128 | [5] 0.016 | [6] -0.027 | [8] -0.015 | [10] -0.383

MT-CO2 (UniProt P00403)
inactive: [1] -0.001 | [2] 0.033 | [3] -0.048 | [4] -0.094 | [5] -0.012 | [6] 0 | [7] -0.027 | [8] -0.051 | [9] 0.01 | [10] 0.103

MRPS7 (UniProt Q9Y2R9)
inactive: [1] -0.012 | [2] -0.15 | [3] 0.029 | [4] 0.04 | [5] 0.049 | [6] 0.064 | [7] 0.146 | [8] 0.091 | [9] 0.054 | [10] -0.068

MRPS33 (UniProt Q9Y291)
inactive: [1] -0.033 | [2] -0.077 | [4] 0.02 | [5] -0.018 | [6] 0.087 | [7] 0.119 | [8] 0.04 | [9] 0.024 | [10] 0.02

MRPS17 (UniProt Q9Y2R5)
inactive: [1] -0.017 | [2] -0.138 | [4] 0.072 | [5] 0.105 | [6] 0.096 | [7] 0.185 | [8] 0.096 | [9] 0.016 | [10] -0.047

MT-CO3 (UniProt P00414)
inactive: [1] -0.088 | [2] 0.082 | [3] -0.224 | [4] 0.13 | [6] -0.128 | [8] -0.019 | [10] -0.101

MTX2 (UniProt O75431)
inactive: [1] -0.005 | [2] 0.045 | [3] -0.037 | [4] 0.001 | [5] 0.065 | [6] -0.018 | [7] 0.071 | [8] 0.004 | [9] -0.005 | [10] 0.003

MRPS28 (UniProt Q9Y2Q9)
inactive: [1] -0.087 | [2] -0.065 | [3] 0.041 | [4] 0.01 | [5] -0.025 | [6] 0.032 | [7] 0.022 | [8] 0.125 | [9] -0.027 | [10] -0.109

MRPS23 (UniProt Q9Y3D9)
inactive: [1] -0.068 | [2] -0.084 | [3] -0.085 | [4] 0.034 | [5] 0.074 | [6] 0.007 | [7] 0.025 | [8] 0.146 | [9] 0.024 | [10] -0.035

MSI1 (UniProt O43347)
inactive: [1] 0.121 | [2] 0.072 | [3] 0.157 | [4] -0.004 | [5] -0.009 | [6] 0.18 | [7] 0.233 | [8] -0.044 | [9] 0.061 | [10] 0.026

Source: the supplement of paper PMC10849652
